Assay in all cases: co-IP
In one test the target is T1, Myc-MARCH5 (UniProt Q9NX47).
T1 sequence: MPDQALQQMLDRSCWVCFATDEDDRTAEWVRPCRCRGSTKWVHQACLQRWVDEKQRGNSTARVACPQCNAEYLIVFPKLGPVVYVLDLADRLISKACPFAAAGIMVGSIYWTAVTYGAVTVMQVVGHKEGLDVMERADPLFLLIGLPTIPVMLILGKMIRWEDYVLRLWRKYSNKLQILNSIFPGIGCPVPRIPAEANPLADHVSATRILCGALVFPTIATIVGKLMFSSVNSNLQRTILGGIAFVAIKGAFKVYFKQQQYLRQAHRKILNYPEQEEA

Amino acid sequences for entries named in this document (tags omitted). A change or cut given only in a name is not applied to a line headed by its entry.
UniProt Q96P20: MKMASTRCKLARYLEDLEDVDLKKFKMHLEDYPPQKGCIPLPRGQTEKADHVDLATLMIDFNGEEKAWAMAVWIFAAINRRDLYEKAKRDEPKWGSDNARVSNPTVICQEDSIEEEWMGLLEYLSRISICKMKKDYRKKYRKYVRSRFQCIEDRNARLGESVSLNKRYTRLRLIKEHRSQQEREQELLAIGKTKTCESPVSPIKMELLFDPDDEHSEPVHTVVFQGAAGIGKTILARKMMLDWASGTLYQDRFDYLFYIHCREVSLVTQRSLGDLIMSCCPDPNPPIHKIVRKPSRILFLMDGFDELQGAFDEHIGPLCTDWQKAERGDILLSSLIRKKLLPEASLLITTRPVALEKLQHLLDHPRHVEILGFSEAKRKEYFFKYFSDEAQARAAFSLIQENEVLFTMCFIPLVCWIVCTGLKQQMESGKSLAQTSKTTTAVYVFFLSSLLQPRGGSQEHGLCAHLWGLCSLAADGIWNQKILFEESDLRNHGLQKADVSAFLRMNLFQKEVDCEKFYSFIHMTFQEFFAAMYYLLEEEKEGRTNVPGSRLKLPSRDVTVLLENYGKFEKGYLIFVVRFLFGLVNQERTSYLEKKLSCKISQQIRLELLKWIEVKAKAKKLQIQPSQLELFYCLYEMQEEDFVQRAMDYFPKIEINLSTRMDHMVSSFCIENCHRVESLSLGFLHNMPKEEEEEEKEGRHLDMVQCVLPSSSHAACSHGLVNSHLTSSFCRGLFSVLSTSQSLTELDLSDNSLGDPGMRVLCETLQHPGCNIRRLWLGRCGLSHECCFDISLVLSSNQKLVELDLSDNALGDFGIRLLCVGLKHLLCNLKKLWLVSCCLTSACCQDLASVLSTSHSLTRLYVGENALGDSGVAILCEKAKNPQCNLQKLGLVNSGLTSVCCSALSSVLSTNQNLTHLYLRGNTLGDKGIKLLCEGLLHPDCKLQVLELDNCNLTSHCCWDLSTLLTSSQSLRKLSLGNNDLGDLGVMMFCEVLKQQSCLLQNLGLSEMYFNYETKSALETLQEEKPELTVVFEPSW
UniProt Q9ULZ3: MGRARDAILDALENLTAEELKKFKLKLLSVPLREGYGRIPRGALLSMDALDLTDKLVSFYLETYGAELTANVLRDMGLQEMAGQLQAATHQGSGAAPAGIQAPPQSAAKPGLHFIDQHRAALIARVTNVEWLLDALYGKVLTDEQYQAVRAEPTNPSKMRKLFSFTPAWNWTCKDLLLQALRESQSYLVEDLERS
UniProt P29466: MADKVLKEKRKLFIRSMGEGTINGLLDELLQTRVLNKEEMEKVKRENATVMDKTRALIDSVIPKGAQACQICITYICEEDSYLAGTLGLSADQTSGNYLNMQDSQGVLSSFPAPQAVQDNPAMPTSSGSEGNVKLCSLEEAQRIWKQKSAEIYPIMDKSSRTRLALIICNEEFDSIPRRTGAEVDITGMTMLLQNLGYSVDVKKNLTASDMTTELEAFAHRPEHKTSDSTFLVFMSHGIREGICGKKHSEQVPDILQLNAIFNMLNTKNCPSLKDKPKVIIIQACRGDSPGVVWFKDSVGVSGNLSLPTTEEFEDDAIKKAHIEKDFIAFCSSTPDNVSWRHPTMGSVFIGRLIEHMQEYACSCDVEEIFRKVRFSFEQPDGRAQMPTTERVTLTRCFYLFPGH
UniProt Q7Z434: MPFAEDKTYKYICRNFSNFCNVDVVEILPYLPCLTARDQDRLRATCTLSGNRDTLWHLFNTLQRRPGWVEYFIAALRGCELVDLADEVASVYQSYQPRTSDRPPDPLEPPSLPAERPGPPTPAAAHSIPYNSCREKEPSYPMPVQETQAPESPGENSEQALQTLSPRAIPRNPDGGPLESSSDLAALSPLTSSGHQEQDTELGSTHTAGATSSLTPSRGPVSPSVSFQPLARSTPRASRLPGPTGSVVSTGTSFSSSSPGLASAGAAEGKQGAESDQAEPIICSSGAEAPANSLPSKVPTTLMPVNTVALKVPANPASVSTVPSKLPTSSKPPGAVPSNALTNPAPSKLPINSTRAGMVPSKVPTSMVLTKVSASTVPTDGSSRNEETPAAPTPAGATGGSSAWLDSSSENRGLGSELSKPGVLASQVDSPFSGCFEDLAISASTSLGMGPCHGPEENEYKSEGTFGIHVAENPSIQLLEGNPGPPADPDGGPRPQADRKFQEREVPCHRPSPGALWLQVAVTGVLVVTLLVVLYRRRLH

For another test, the target named is FLAG-NLRP3 K324R (UniProt Q96P20).
Another test concerns the target FLAG-NLRP3 K430R (UniProt Q96P20).

No constants are given. Whether binding was seen depends on the method and setting. Binding seen in cells or lysates may run through a third protein. Some entries that bind do so weakly or less than the wild type. For some of these results: Tags and fused reporters may be left off the sequences shown.

We go through 3 substances from publication doi:10.1101/2023.01.12.523764.

For FLAG-ASC (from UniProt Q9ULZ3 1-195), the binding entry in the test with Myc-MARCH5 is listed as “binds”.

Consider “FLAG-pro-caspase-1 (from UniProt P29466 1-404) (enzyme)”, for which, in the test with Myc-MARCH5, the binding result is on record as “no binding”.

Regarding “MAVS co-precipitated with NLRP3 K324R and K430R (Fig EV6C) (from UniProt Q7Z434 1-540)”, the binding entry with FLAG-NLRP3 K324R and with FLAG-NLRP3 K430R was “binds” in each case.
